The supplement of paper PMC10849652
This is one part of the list.

Amino acid sequences for entries named in this document (tags omitted). A change or cut given only in a name is not applied to a line headed by its entry.
UniProt Q9NPE3: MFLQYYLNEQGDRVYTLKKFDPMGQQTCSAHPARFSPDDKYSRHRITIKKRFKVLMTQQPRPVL
UniProt Q9GZP1: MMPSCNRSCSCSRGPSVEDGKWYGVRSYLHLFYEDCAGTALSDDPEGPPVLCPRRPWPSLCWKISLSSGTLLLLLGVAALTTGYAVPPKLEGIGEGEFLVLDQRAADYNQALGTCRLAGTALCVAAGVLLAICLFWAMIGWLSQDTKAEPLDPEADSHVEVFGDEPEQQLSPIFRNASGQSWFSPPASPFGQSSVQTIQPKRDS
UniProt Q96MY1: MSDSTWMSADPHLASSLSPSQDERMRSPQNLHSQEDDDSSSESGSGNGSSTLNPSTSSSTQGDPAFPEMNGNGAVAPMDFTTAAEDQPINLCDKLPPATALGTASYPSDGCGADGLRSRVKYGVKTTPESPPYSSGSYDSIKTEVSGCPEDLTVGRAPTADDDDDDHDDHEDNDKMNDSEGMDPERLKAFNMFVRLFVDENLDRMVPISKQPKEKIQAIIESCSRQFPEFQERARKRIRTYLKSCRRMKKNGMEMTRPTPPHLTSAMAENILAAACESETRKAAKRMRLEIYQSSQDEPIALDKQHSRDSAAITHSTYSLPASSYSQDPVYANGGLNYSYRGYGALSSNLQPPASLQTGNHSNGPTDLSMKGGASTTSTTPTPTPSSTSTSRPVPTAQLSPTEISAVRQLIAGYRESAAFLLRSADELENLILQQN
UniProt Q9BVI4: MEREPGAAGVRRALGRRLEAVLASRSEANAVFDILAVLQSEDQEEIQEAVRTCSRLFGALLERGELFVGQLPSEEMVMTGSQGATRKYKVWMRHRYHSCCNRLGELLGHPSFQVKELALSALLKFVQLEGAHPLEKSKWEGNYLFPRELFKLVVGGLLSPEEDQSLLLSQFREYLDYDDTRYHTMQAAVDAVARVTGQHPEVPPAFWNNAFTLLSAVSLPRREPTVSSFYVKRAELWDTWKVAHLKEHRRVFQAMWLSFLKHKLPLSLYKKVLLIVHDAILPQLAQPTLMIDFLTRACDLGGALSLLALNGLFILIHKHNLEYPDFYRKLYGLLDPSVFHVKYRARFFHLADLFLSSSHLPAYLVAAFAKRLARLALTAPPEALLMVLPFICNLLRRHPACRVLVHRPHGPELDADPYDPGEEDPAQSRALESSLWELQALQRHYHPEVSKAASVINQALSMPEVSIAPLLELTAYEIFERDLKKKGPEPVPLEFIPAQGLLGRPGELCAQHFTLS
UniProt Q8IXH7, whole entry, looked up: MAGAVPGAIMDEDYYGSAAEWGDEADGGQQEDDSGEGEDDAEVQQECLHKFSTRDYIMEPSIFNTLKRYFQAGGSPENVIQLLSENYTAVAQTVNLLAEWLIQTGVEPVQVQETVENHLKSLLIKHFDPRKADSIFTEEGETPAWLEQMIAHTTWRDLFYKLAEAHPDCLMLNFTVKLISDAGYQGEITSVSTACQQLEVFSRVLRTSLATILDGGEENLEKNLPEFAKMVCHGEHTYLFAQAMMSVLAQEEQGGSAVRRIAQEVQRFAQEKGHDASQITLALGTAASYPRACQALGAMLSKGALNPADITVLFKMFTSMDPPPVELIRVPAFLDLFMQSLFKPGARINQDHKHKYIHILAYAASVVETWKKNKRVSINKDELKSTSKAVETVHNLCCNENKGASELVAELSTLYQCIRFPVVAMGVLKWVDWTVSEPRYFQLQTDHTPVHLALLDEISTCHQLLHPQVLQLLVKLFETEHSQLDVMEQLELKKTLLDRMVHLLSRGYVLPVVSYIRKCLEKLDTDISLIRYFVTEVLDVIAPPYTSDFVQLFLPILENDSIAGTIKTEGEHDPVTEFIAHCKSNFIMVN
UniProt P30414: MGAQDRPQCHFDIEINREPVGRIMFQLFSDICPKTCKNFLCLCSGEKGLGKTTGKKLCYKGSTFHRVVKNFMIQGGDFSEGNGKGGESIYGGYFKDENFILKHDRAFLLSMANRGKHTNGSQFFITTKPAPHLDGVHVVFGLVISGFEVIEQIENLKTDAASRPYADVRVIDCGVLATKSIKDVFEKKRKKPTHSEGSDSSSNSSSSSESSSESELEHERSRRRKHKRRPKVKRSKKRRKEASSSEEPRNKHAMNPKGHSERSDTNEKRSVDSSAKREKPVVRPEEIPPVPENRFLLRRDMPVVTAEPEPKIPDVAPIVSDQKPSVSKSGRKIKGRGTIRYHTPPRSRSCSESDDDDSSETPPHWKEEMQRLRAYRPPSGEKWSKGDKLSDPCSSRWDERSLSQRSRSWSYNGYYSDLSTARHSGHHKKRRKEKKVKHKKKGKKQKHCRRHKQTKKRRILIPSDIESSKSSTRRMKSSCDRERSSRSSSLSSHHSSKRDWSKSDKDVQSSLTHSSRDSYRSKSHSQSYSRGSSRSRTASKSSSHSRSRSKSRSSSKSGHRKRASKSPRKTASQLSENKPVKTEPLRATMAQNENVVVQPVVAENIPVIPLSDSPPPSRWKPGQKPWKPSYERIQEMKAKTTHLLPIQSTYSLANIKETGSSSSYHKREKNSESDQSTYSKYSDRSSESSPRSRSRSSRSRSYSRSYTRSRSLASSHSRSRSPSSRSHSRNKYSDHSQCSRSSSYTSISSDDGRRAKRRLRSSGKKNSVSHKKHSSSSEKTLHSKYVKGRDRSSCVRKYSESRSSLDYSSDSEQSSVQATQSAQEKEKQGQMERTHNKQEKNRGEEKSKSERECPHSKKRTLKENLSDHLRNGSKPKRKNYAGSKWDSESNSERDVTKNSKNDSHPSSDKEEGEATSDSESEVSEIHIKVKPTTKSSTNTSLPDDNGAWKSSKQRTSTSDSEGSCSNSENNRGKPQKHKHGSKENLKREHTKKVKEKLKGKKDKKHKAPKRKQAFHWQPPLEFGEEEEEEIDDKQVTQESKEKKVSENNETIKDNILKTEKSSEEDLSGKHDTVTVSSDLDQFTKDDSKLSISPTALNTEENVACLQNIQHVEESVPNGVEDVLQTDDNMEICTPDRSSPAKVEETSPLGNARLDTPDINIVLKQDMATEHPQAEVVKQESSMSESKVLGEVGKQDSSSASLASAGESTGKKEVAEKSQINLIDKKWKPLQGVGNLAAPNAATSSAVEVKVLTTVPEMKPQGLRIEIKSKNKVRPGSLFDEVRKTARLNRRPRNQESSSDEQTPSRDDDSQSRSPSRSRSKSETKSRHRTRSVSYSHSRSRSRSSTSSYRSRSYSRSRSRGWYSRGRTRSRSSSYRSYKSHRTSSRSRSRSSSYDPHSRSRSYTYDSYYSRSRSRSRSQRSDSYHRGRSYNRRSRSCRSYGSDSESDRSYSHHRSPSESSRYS
UniProt Q8N5F7: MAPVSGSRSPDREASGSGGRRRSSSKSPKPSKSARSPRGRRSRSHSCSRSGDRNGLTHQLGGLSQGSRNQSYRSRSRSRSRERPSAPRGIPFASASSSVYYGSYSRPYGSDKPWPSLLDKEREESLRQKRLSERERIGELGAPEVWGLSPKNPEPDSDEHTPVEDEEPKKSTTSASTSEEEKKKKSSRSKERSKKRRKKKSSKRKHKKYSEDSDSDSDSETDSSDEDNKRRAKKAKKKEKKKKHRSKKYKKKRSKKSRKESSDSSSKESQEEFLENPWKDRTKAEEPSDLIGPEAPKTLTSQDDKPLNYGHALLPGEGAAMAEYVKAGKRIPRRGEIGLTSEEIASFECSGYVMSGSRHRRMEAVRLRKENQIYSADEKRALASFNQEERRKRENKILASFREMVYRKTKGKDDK
UniProt P48645: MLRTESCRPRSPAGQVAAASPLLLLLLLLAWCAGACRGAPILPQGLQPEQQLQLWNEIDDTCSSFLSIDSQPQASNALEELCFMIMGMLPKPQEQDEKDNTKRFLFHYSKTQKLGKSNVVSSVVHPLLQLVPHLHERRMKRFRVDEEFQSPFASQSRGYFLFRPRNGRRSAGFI
UniProt Q92686, whole entry, looked up: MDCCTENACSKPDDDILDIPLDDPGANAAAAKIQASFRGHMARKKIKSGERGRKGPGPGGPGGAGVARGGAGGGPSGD
UniProt Q9NPE2: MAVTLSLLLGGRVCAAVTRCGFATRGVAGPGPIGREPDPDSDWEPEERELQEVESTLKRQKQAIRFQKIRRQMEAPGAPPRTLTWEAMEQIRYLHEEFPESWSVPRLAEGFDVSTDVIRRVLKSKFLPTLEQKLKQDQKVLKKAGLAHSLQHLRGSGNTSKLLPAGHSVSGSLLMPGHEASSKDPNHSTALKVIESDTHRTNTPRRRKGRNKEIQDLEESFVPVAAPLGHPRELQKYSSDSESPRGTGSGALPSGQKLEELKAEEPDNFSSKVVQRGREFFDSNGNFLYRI
UniProt O75052: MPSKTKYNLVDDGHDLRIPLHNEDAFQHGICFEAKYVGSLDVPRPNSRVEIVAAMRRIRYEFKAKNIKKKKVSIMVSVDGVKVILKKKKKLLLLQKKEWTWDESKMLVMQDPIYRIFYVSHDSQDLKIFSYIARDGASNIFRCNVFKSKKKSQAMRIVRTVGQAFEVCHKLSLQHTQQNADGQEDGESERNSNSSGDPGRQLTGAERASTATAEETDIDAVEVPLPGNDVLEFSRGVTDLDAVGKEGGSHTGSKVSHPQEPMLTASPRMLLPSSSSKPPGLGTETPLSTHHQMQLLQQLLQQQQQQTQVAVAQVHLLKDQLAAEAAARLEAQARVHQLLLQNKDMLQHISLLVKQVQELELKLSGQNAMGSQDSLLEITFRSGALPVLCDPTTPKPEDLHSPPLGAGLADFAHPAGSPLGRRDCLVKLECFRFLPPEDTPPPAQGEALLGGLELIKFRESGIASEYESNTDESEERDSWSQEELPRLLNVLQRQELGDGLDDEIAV
UniProt Q9NWW6: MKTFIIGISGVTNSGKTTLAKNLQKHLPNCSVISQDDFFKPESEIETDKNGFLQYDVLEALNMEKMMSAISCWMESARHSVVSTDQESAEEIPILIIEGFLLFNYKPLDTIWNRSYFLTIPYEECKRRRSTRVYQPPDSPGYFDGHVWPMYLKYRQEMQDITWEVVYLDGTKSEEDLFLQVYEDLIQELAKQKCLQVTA
UniProt P69849: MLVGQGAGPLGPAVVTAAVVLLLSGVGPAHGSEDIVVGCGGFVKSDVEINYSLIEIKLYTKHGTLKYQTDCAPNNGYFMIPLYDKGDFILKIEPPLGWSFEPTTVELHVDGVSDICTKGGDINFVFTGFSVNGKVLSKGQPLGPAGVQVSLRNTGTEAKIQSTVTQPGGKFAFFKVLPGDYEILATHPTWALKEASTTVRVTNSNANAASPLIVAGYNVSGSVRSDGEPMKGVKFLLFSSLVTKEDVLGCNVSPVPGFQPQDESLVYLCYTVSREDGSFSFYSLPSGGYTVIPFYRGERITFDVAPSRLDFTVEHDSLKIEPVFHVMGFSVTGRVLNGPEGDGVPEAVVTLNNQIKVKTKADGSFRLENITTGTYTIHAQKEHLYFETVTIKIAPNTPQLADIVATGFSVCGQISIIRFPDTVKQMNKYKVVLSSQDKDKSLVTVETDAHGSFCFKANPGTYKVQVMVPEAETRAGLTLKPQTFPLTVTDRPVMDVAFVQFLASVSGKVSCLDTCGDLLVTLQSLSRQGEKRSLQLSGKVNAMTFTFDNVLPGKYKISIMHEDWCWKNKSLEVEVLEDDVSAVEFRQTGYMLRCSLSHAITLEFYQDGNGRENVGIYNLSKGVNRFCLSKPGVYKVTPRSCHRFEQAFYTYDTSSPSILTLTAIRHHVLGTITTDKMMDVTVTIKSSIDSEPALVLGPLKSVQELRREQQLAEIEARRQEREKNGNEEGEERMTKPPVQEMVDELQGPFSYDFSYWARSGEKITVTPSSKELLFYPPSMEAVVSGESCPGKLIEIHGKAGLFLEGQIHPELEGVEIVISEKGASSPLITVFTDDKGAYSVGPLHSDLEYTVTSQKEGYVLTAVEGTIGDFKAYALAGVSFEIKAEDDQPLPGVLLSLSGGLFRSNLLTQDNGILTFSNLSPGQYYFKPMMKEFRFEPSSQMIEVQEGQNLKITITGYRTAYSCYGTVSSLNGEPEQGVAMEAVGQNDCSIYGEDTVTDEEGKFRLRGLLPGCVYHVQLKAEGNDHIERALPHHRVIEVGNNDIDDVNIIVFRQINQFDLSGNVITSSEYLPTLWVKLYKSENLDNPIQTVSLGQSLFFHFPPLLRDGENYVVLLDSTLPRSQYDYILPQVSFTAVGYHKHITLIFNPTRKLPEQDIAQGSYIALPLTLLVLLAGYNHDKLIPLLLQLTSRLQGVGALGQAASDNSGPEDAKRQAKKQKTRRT
UniProt P25963: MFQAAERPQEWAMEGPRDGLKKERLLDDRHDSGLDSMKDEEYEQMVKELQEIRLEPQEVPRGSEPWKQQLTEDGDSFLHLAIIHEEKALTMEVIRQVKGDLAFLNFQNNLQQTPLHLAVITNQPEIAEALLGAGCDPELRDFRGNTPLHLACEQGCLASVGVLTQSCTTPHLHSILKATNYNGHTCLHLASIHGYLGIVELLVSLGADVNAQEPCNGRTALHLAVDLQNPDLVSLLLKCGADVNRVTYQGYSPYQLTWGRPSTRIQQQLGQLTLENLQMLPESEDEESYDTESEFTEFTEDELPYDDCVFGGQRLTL

Tests used:
Test in all cases: log2 fold change, soluble protein after heating vs DMSO (PISA); higher = thermal stabilisation; K562 cells, 10 uM, 30 min; active = over 0.2 and 3.5 SD of the protein, either way, in both replicates (recomputed)
[1] = compound: COc1cc(Nc2ncc3c(n2)-c2ccc(Cl)cc2C(c2c(F)cccc2OC)=NC3)ccc1C(=O)O [alisertib]
How it was run: (§1)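 K562 cells at 2×10^6 cells/mL were treated with 10 μM compound for 30 min. Aliquots were heated for 3 min across 48°C-58°C, pooled, and extracted in PBS with 0.5% NP-40 at 4°C; soluble protein was the supernatant after 21,000xg for 90 min. Soluble protein was quantified by TMTpro 16plex LC-MS/MS with channel sums equalised, and reported as log2 fold change in thermal stability against DMSO controls, with values from duplicates.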

[2] = compound: COc1cccc2cc(-c3nc([C@H]4CC[C@H](C(=O)O)CC4)n4ncnc(N)c34)[nH]c12
How it was run: as §1

[3] = compound: CS(=O)(=O)N1CCN(Cc2cc3nc(-c4cccc5[nH]ncc45)nc(N4CCOCC4)c3s2)CC1 [pictilisib]
How it was run: as §1

[4] = compound: Cc1cc(Nc2cc(CN3CCOCC3)c3nc(C)c(Cc4ccc(Cl)cc4F)n3n2)n[nH]1 [gandotinib]
How it was run: as §1

[5] = compound: Cc1ccc(C(=O)N(CCCN)[C@@H](c2nc3cc(Cl)ccc3c(=O)n2Cc2ccccc2)C(C)C)cc1 [ispinesib]
How it was run: as §1

[6] = compound: COC1=CC=C(C=C1)CN2C=CC3=C2C=C(C=C3)C(=O)NO
How it was run: as §1

[7] = compound: CO[C@H]1C[C@@H]2CC[C@@H](C)[C@@](O)(O2)C(=O)C(=O)N2CCCC[C@H]2C(=O)O[C@H]([C@H](C)C[C@@H]2CC[C@H](n3cnnn3)[C@H](OC)C2)CC(=O)[C@H](C)/C=C(\C)[C@@H](O)[C@@H](OC)C(=O)[C@H](C)C[C@H](C)/C=C/C=C/C=C/1C [zotarolimus]
How it was run: as §1

[8] = compound: COc1cc2nc(-c3cc(F)ccc3O)nc(N[C@@H]3CNC[C@H]3C(C)(C)O)c2cc1OC
How it was run: as §1

[9] = compound: COc1cc2ncnc(Nc3ccc(F)c(Cl)c3)c2cc1OCCCN1CCOCC1 [gefitinib]
How it was run: as §1

[10] = compound: CS(=O)(=O)CCNCc1ccc(-c2ccc3ncnc(Nc4ccc(OCc5cccc(F)c5)c(Cl)c4)c3c2)o1 [lapatinib]
How it was run: as §1

[11] = compound: C[C@@H](Oc1cc(-c2cnn(C3CCNCC3)c2)cnc1N)c1c(Cl)ccc(F)c1Cl [crizotinib]
How it was run: as §1

[12] = compound: C[C@H](C1=CC=C(C=C1)C(=O)NC2=C3C=CNC3=NC=C2)N
How it was run: as §1

[13] = compound: C[C@H](Nc1ncnc2nc[nH]c12)c1cc2cccc(Cl)c2c(=O)n1-c1ccccc1 [duvelisib]
How it was run: as §1

[14] = compound: Cc1cc(SCc2sc(-c3ccc(C(F)(F)F)cc3)nc2C)ccc1OCC(=O)O
How it was run: as §1

[15] = compound: Cc1ccc(-n2nc(C(C)(C)C)cc2NC(=O)Nc2ccc(OCCN3CCOCC3)c3ccccc23)cc1 [doramapimod]
How it was run: as §1

[16] = compound: COc1cc(C(=O)O)ccc1NC(=O)[C@@H]1N[C@@H](CC(C)(C)C)[C@](C#N)(c2ccc(Cl)cc2F)[C@H]1c1cccc(Cl)c1F [idasanutlin]
How it was run: as §1

[17] = compound: Cc1cc(Nc2cc(N3CCN(C)CC3)nc(Sc3ccc(NC(=O)C4CC4)cc3)n2)n[nH]1 [tozasertib]
How it was run: as §1

[18] = compound: C[C@@H]1COCCN1C2=NC(=NC(=C2)C3(CC3)S(=O)(=O)C)C4=C5C=CNC5=CC=C4
How it was run: as §1

[19] = compound: CON(C)C(=O)N1N=C(c2cc(F)ccc2F)S[C@@]1(CCCN)c1ccccc1 [filanesib]
How it was run: as §1

[20] = compound: CS(=O)(=O)c1ccc(-c2cnc(N)c(C(=O)Nc3ccccc3)n2)cc1
How it was run: as §1

Measured: log2 fold change

NME4 (UniProt O00746)
inactive: [1] -0.076 | [2] 0.16 | [3] -0.036 | [4] -0.031 | [5] 0.042

NOP10 (UniProt Q9NPE3)
inactive: [6] 0.122 | [7] 0.023 | [1] 0.119 | [8] -0.005 | [9] -0.045 | [2] 0.13 | [10] 0.033 | [11] -0.144 | [12] 0.061 | [13] 0 | [14] -0.111 | [15] 0.009 | [5] -0.016

NEO1 (UniProt Q92859)
inactive: [16] 0.128 | [1] 0.168 | [9] 0.004 | [2] 0.13 | [17] -0.097 | [5] 0.028

NIPBL (UniProt Q6KC79)
inactive: [6] 0.069 | [16] 0.069 | [8] -0.056 | [10] 0.027 | [11] -0.373 | [18] 0.188 | [17] 0 | [15] 0.101

NRBP2 (UniProt Q9NSY0)
inactive: [6] -0.025 | [11] -0.015 | [15] -0.068 | [5] -0.008

NRSN2 (UniProt Q9GZP1)
inactive: [19] -0.126 | [20] 0.162 | [18] -0.028 | [13] 0.052 | [17] 0.001 | [14] 0.033

NOL4L (UniProt Q96MY1)
inactive: [19] 0.104 | [9] 0.009 | [20] 0.039 | [18] -0.064 | [13] 0.097 | [17] 0.061 | [14] -0.091

NOC4L (UniProt Q9BVI4)
inactive: [9] -0.13 | [3] 0.022 | [4] 0.033

NOTCH2 (UniProt Q04721)
inactive: [16] -0.102 | [17] -0.021

NFKB2 (UniProt Q00653)
inactive: [6] -0.074 | [7] -0.01 | [16] 0.015 | [1] -0.118 | [8] 0.023 | [9] 0 | [2] -0.024 | [10] 0.01 | [11] -0.042 | [18] -0.047 | [12] 0.218 | [17] 0.185 | [15] 0.037 | [5] -0.249

NELFCD (UniProt Q8IXH7)
inactive: [6] 0.006 | [7] -0.071 | [16] 0 | [8] 0.179 | [9] -0.052 | [10] -0.006 | [3] -0.061 | [11] 0.349 | [18] 0.145 | [12] 0.006 | [4] -0.327 | [14] 0.249 | [15] 0.025

NKTR (UniProt P30414)
inactive: [1] 0.064 | [8] 0.295 | [2] 0.109 | [10] -0.173

NRROS (UniProt Q86YC3)
inactive: [8] 0.091 | [9] -0.001 | [10] -0.024 | [3] 0.085 | [4] 0.01

NEURL4 (UniProt Q96JN8)
inactive: [19] 0.088 | [7] -0.005 | [16] -0.028 | [20] -0.083 | [12] 0.25 | [13] -0.359 | [14] -0.441 | [5] -0.054

NKAP (UniProt Q8N5F7)
inactive: [6] -0.005 | [7] 0.112 | [16] 0.115 | [1] 0.037 | [8] -0.051 | [9] -0.029 | [2] -0.13 | [10] 0.09 | [3] -0.013 | [11] -0.113 | [18] -0.118 | [12] 0.013 | [4] 0.041 | [14] -0.034 | [15] 0.042 | [5] 0.001

NMU (UniProt P48645)
inactive: [6] 0.259 | [7] -0.018 | [16] 0.057 | [8] -0.156 | [9] 0.162 | [10] -0.047 | [3] -0.3 | [11] 0.025 | [18] -0.445 | [12] -0.026 | [4] -0.159 | [14] 0.127 | [15] -0.04 | [5] -0.186

NRGN (UniProt Q92686)
inactive: [6] -0.831 | [16] 0.023 | [8] -0.108 | [9] -0.012 | [10] 0.107 | [3] 0.404 | [11] 0.241 | [18] 0.043 | [15] -0.282 | [5] 0
active: [4] 0.891

NGDN (UniProt Q8NEJ9)
inactive: [19] -0.302 | [7] 0.044 | [20] -0.314 | [12] 0.204 | [17] -0.078 | [5] -0.361

NLRX1 (UniProt Q86UT6)
inactive: [6] -0.206 | [19] 0.141 | [8] -0.161 | [9] -0.049 | [10] 0.003 | [20] -0.062 | [11] 0.265 | [18] 0.037 | [17] -0.117 | [15] -0.564

NOSTRIN isoform 4 (UniProt Q8IVI9)
inactive: [19] 0.309 | [16] -0.005 | [1] -0.183 | [9] 0.08 | [2] -0.272 | [20] -0.031 | [5] -0.449

NSA2 (UniProt O95478)
inactive: [3] -0.216 | [18] -0.234 | [4] -0.032

NGRN (UniProt Q9NPE2)
inactive: [19] 0.079 | [7] -0.102 | [16] 0.045 | [1] 0.012 | [8] 0.082 | [9] 0.028 | [2] -0.006 | [10] 0.059 | [3] 0.101 | [20] -0.023 | [18] -0.01 | [12] 0.036 | [13] -0.046 | [4] 0.022 | [17] -0.095 | [14] -0.04

NOLC1 isoform 3 (UniProt Q14978)
inactive: [7] -0.013 | [12] -0.305

NOL8 (UniProt Q76FK4)
inactive: [8] -0.031 | [10] -0.059 | [3] 0.158 | [13] -0.098 | [4] 0.029 | [14] -0.121

NEU3 isoform 2 (UniProt Q9UQ49)
inactive: [19] -0.286 | [8] 0.301 | [10] -0.126 | [20] 0.062

9 consecutive entries from above:
NOL4L (UniProt Q96MY1)
inactive: [19] 0.104 | [9] 0.009 | [20] 0.039 | [18] -0.064 | [13] 0.097 | [17] 0.061 | [14] -0.091

NOC4L (UniProt Q9BVI4)
inactive: [9] -0.13 | [3] 0.022 | [4] 0.033

NOTCH2 (UniProt Q04721)
inactive: [16] -0.102 | [17] -0.021

NFKB2 (UniProt Q00653)
inactive: [6] -0.074 | [7] -0.01 | [16] 0.015 | [1] -0.118 | [8] 0.023 | [9] 0 | [2] -0.024 | [10] 0.01 | [11] -0.042 | [18] -0.047 | [12] 0.218 | [17] 0.185 | [15] 0.037 | [5] -0.249

NELFCD (UniProt Q8IXH7)
inactive: [6] 0.006 | [7] -0.071 | [16] 0 | [8] 0.179 | [9] -0.052 | [10] -0.006 | [3] -0.061 | [11] 0.349 | [18] 0.145 | [12] 0.006 | [4] -0.327 | [14] 0.249 | [15] 0.025

NKTR (UniProt P30414)
inactive: [1] 0.064 | [8] 0.295 | [2] 0.109 | [10] -0.173

NRROS (UniProt Q86YC3)
inactive: [8] 0.091 | [9] -0.001 | [10] -0.024 | [3] 0.085 | [4] 0.01

NEURL4 (UniProt Q96JN8)
inactive: [19] 0.088 | [7] -0.005 | [16] -0.028 | [20] -0.083 | [12] 0.25 | [13] -0.359 | [14] -0.441 | [5] -0.054

NKAP (UniProt Q8N5F7)
inactive: [6] -0.005 | [7] 0.112 | [16] 0.115 | [1] 0.037 | [8] -0.051 | [9] -0.029 | [2] -0.13 | [10] 0.09 | [3] -0.013 | [11] -0.113 | [18] -0.118 | [12] 0.013 | [4] 0.041 | [14] -0.034 | [15] 0.042 | [5] 0.001

More results:

NRIP3 (UniProt Q9NQ35)
inactive: [19] -0.233 | [16] 0.089 | [20] 0.055

NOS1AP (UniProt O75052)
inactive: [7] -0.098 | [1] 0.353 | [8] -0.09 | [2] -0.118 | [10] -0.1 | [18] 0.101 | [12] 0.237 | [5] -0.279

NMNAT3 (UniProt Q96T66)
inactive: [19] -0.211 | [1] 0.443 | [8] 0.054 | [2] -0.197 | [10] -0.023 | [20] 0.107 | [18] 0.145 | [13] 0.241 | [14] -0.086

NMRK1 (UniProt Q9NWW6)
inactive: [13] -0.094 | [14] 0.031

NPRL3 (UniProt Q12980)
inactive: [13] -0.124 | [14] -0.007

NOMO3 (UniProt P69849)
inactive: [6] -0.203 | [19] 0.221 | [20] -0.039 | [11] 0.077 | [18] 0.084 | [15] 0.019

NOC3L (UniProt Q8WTT2)
inactive: [16] 0.011 | [1] 0.226 | [9] 0.027 | [2] 0.414 | [3] 0.192 | [18] 0.14 | [4] -0.122

NIPSNAP2 (UniProt C9J7B1)
inactive: [19] 0.05 | [16] -0.38 | [1] -0.041 | [2] -0.047 | [20] 0

NRM (UniProt Q8IXM6)
inactive: [19] 0.081 | [7] -0.052 | [16] -0.039 | [1] 0.012 | [8] -0.229 | [9] 0.039 | [2] 0.081 | [10] -0.03 | [3] 0.113 | [20] -0.064 | [18] 0.234 | [12] -0.174 | [4] -0.232 | [17] 0.017

NFATC1 (UniProt O95644)
inactive: [19] -0.109 | [1] -0.008 | [8] -0.019 | [2] 0.127 | [10] -0.037 | [20] 0.065 | [18] -0.352

NFKBIA (UniProt P25963)
inactive: [19] -0.011 | [3] -0.024 | [20] 0.076 | [13] 0 | [4] -0.218 | [14] 0.11
